From doi:10.1101/2025.05.14.653660

By UniProt entry, the sequences of proteins in these tests, tags left out. Where a name states a change or a piece, a line headed by the entry shows the natural chain unless it says otherwise.
UniProt Q96KQ7: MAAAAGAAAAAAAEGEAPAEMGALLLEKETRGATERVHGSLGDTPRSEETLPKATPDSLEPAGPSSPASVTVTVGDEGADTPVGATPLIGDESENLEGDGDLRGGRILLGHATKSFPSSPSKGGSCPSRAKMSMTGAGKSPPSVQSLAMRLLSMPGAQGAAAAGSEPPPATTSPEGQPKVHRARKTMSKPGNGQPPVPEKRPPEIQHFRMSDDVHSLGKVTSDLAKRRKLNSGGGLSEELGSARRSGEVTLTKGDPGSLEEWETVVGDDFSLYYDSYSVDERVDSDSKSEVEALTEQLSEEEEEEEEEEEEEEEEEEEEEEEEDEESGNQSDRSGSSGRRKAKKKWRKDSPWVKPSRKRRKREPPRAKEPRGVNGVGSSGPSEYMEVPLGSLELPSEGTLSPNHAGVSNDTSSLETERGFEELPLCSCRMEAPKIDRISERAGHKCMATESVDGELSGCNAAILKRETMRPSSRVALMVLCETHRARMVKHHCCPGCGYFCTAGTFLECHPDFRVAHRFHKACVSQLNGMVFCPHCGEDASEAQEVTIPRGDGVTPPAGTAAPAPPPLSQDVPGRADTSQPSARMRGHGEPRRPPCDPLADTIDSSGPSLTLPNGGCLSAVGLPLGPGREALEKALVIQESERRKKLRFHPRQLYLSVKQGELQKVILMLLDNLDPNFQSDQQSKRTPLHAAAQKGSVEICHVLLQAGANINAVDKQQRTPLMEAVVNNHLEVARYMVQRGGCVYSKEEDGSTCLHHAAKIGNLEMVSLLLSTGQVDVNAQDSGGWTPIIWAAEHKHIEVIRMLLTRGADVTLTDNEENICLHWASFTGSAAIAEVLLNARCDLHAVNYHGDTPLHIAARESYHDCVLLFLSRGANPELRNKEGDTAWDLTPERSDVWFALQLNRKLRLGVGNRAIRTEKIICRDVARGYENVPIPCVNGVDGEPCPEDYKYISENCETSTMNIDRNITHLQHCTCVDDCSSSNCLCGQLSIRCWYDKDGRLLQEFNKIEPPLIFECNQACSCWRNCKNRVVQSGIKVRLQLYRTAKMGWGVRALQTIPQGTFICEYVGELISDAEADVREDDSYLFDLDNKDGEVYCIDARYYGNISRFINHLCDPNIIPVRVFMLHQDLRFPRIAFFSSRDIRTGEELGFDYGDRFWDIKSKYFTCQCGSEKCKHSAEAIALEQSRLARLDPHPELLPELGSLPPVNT

B1: UHRF1 (protein, UniProt Q96T88 1-793)
chain: MWIQVRTMDGRQTHTVDSLSRLTKVEELRRKIQELFHVEPGLQRLFYRGKQMEDGHTLFDYEVRLNDTIQLLVRQSLVLPHSTKERDSELSDTDSGCCLGQSESDKSSTHGEAAAETDSRPADEDMWDETELGLYKVNEYVDARDTNMGAWFEAQVVRVTRKAPSRDEPCSSTSRPALEEDVIYHVKYDDYPENGVVQMNSRDVRARARTIIKWQDLEVGQVVMLNYNPDNPKERGFWYDAEISRKRETRTARELYANVVLGDDSLNDCRIIFVDEVFKIERPGEGSPMVDNPMRRKSGPSCKHCKDDVNRLCRVCACHLCGGRQDPDKQLMCDECDMAFHIYCLDPPLSSVPSEDEWYCPECRNDASEVVLAGERLRESKKKAKMASATSSSQRDWGKGMACVGRTKECTIVPSNHYGPIPGIPVGTMWRFRVQVSESGVHRPHVAGIHGRSNDGAYSLVLAGGYEDDVDHGNFFTYTGSGGRDLSGNKRTAEQSCDQKLTNTNRALALNCFAPINDQEGAEAKDWRSGKPVRVVRNVKGGKNSKYAPAEGNRYDGIYKVVKYWPEKGKSGFLVWRYLLRRDDDEPGPWTKEGKDRIKKLGLTMQYPEGYLEALANREREKENSKREEEEQQEGGFASPRTGKGKWKRKSAGGGPSRAGSPRRTSKKTKVEPYSLTAQQSSLIREDKSNAKLWNEVLASLKDRPASGSPFQLFLSKVEETFQCICCQELVFRPITTVCQHNVCKDCLDRSFRAQVFSCPACRYDLGRSYAMQVNQPLQTVLNQLFPGYGNGR
B2: LASP1 (protein, UniProt Q14847 1-261)
chain: MNPNCARCGKIVYPTEKVNCLDKFWHKACFHCETCKMTLNMKNYKGYEKKPYCNAHYPKQSFTMVADTPENLRLKQQSELQSQVRYKEEFEKNKGKGFSVVADTPELQRIKKTQDQISNIKYHEEFEKSRMGPSGGEGMEPERRDSQDGSSYRRPLEQQQPHHIPTSAPVYQQPQQQPVAQSYGGYKEPAAPVSIQRSAPGGGGKRYRAVYDYSAADEDEVSFQDGDTIVNVQQIDDGWMYGTVERTGDTGMLPANYVEAI

These molecules were tested against T1, FLAG-tagged RUNX1T1 (UniProt Q06455) (assay: affinity purification with mass spectrometry).
T1 sequence: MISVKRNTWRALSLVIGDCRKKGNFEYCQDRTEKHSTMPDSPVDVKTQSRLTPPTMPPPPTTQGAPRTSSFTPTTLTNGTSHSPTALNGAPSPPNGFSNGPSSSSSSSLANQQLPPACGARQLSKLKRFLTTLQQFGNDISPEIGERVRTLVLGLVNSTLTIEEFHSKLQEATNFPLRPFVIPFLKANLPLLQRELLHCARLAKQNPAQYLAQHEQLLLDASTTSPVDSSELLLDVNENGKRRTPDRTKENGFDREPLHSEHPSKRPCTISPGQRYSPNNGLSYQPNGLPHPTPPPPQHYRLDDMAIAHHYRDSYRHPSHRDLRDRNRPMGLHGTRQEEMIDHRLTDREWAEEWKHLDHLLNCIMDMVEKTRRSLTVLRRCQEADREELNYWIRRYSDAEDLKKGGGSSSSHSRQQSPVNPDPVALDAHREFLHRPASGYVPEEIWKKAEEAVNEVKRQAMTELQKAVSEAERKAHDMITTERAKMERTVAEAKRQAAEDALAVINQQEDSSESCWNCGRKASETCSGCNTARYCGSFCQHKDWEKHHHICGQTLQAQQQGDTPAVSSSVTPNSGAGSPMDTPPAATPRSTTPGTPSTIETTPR

binding, binds:
EHMT2/G9A (from UniProt Q96KQ7 1-1210), B1, B2

No constants are given. Whether binding was seen depends on the method and setting. Binding seen in cells or lysates may run through a third protein. Here binding means that the protein was enriched with, or labelled near, the bait; the list need not be complete. Where a sequence is shown, tags or fusion partners need not be part of it.
